# Measured values reported in PubChem BioAssay AID1259354 (Paczesny and Yang Labs, IUPUI and University of Michigan, 2018).
# Protein sequences, listed by entry. Tags and fused reporters are not part of them. Lines headed by an entry give the natural chain unless they say otherwise; changes in a name come on top.
# UniProt Q01638: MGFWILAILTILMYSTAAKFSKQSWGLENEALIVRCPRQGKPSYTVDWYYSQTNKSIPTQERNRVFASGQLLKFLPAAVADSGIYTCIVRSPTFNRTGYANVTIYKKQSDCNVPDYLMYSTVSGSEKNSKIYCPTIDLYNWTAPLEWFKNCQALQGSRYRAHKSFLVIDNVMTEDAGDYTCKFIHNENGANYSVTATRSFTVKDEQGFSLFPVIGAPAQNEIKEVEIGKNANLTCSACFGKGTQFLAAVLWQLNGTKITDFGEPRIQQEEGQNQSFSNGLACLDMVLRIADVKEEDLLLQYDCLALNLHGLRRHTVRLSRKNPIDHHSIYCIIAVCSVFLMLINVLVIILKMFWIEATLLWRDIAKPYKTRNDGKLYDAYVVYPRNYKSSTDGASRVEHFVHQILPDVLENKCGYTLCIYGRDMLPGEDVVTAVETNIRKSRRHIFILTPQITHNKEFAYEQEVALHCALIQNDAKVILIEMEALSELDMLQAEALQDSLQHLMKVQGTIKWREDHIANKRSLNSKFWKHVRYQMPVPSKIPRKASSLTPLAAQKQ
# Out of some 78,000 compounds screened, about 1,800 (2.3%) were called active. Inconclusive results, whose numbers are uncertain, are shown with a selection of clear calls. Rule as the data show it: active = inhibition above about 30%; inconclusive = mostly about 10% to 28%; inactive = weaker than that.
# Target: Interleukin-1 receptor-like 1 (Homo sapiens) (UniProt Q01638)
# Experiment: blocks human ST2 binding to IL-33, primary screen, biochemical, AlphaLISA (AID 1259354)
# Settings: AlphaLISA ST2-Fc/biotin-IL-33 interaction, 1 h; at 17 µM, active compounds read high
row,SMILES,inhibition
1,COc1ccc(-c2ccc3c(c2)C(=O)N2CC[C@H](NC(=O)c4cccs4)[C@H]2C(=O)N3)c(OC)c1,inconclusive: 15%
2,CCOC(=O)c1c(NC(=O)CSc2ncccn2)sc2c1CCC2,inconclusive: 12%
3,CCSc1nnc(NC(=O)c2ccc(C)c(S(=O)(=O)N3CCCC3)c2)s1,inactive
4,COc1ccc(C(=O)Nc2ccc(Cl)cc2[N+](=O)[O-])cc1OC,inconclusive: 13%
5,O=C(CN(Cc1ccccc1)S(=O)(=O)c1ccc(F)cc1)Nc1cccc([N+](=O)[O-])c1,inconclusive: 10%
6,Cc1ccc(-c2ccccc2C(N)=O)c2cccnc12,inconclusive: 14%
7,O=C(c1ccc(-c2ccn[nH]2)cc1)N1CCC2(CC1)C(=O)Nc1ccccc12,inconclusive: 12%
8,Cc1ccc(C(=O)NCCc2n[nH]c3c2CCCC3)cc1NC(=O)C1CC1,inconclusive: 12%
9,COc1ccc(/C=c2\sc3nc4ccccc4n3c2=O)cc1O,active: 50%
10,COc1ccccc1CN1C(=O)CCC1(C)C(=O)NC1CCCCCC1 (stereo not drawn),inconclusive: 18%
11,O=C1c2cccc([N+](=O)[O-])c2C(=O)N1CN1CCCCC1,inactive
12,O=C(Nc1cc2cc([N+](=O)[O-])ccc2oc1=O)c1ccc(Cl)c([N+](=O)[O-])c1,inconclusive: 19%
13,Cc1nc2c(C(=O)N3CCc4ccccc4C3)c[nH]n2c(=O)c1Cc1ccc(F)cc1Cl,inactive
14,O=Cc1cccn1Cc1ccccc1[N+](=O)[O-],inconclusive: 12%
15,CCNC(=O)C1CCN(c2cc(C(C)C)nc(C)n2)C1 (stereo not drawn),inconclusive: 24%
16,CCC1(C)Cc2c(sc3nc(SCC(N)=O)[nH]c(=O)c23)CO1 (stereo not drawn),inconclusive: 15%
17,C=C1c2ccc(OC)cc2NC(=O)N1c1ccccc1,inconclusive: 19%
18,O=C(c1ccc([N+](=O)[O-])cc1Cl)N(Cc1ccccc1)Cc1ccccc1,active: 38%
19,CCNc1ccnc(N(C)Cc2ncc(C)[nH]2)n1,inconclusive: 11%
20,CCc1nc(SCC(=O)Nc2nc(-c3ccccc3)cs2)n[nH]1,inactive
21,COCCN[C@H]1[C@@H]2OC[C@@H](O2)[C@@H](NCc2ccc3c(c2)OCO3)[C@@H]1O,inconclusive: 16%
22,CCOc1cccc(NC(=O)Cc2cccs2)c1,inconclusive: 10%

# Structural class: those above with fluorine.
row,SMILES,inhibition
5,O=C(CN(Cc1ccccc1)S(=O)(=O)c1ccc(F)cc1)Nc1cccc([N+](=O)[O-])c1,inconclusive: 10%
13,Cc1nc2c(C(=O)N3CCc4ccccc4C3)c[nH]n2c(=O)c1Cc1ccc(F)cc1Cl,inactive

# (list continues)

row,SMILES,inhibition
1,NC(N)=NS(=O)(=O)c1ccc(NC(=O)c2ccc([N+](=O)[O-])cc2)cc1,inconclusive: 14%
2,O=C1C(Nc2ccccc2)=CC(c2ccc(O)cc2)N1c1ccccc1 (stereo not drawn),inactive
3,Cn1c(=O)c2c3c(sc2n2c(SCc4ccccc4)nnc12)CCC3,inactive
4,CCC(=O)Nc1cccc(C(=O)NCCc2cc(C)ccc2C)c1,inconclusive: 13%
5,Cc1sc(-n2cccc2)c(C(=O)N2CC[C@H]3CC[C@@H](C2)N3)c1C,inconclusive: 13%
6,CC(=O)Nc1ccc(-c2c(-c3ccccc3)ncn2Cc2ncc[nH]2)cc1,inconclusive: 21%
7,CC1CCN(Cc2c(O)ccc3cc(-c4nc5ccccc5s4)c(=O)oc23)CC1,inconclusive: 11%
8,Cc1c(N(C)S(=O)(=O)c2ccc(C(C)(C)C)cc2)c(=O)n(-c2ccccc2)n1C,inconclusive: 10%
9,NS(=O)(=O)c1cccc(NC(=O)c2ccc(OCc3ccccc3)cc2)c1,inactive
10,Cc1cccn2c(=O)c3cc(C(=O)Nc4ccc(Br)cc4F)sc3nc12,inconclusive: 16%
11,Cn1c(=O)c2c(nc3n(CCO)c(C45CC6CC(CC(C6)C4)C5)cn23)n(C)c1=O,inactive
12,Cc1ccc(S(=O)(=O)N=C2C=C(Nc3cccc(C(=O)O)c3)C(=O)c3ccccc32)cc1,active: 53%
13,CC(C)CC1C(C#N)=C(N)SC(N)=C1C#N,inconclusive: 11%
14,CC1(C)CC(=O)C2=C(C1)Nc1sc(C#N)c(N)c1C2c1ccccc1 (stereo not drawn),active: 33%
15,CCCNC(=O)N1CCN(C(=O)NCCC)CC1,inconclusive: 25%
16,NC(=O)c1cccnc1N1CCC2(CCCN(CCc3ccccc3)C2)C1 (stereo not drawn),inconclusive: 10%
17,CCN1CCN(C(=O)C2c3ccccc3Oc3ccccc32)CC1,inconclusive: 16%
18,CC(C)(C)c1nnc([C@H]2CCN(Cc3cnc4ccccc4c3)C2)o1,inconclusive: 12%
19,Cc1nnsc1CN(C)C(=O)c1n[nH]c2ccccc12,inconclusive: 11%
20,COc1ccc2c(c1OC)C(=O)OC2Nc1cc(C(F)(F)F)ccc1Cl (stereo not drawn),inactive
21,COc1cc(NC(=O)CCc2c(C)n(C)c3cc(-c4ccccc4OC)nn3c2=O)cc(OC)c1,inconclusive: 21%
22,Cc1nc2c(C(=O)N3CCC4(CC3)OCCO4)c[nH]n2c(=O)c1Cc1ccccc1Cl,inconclusive: 14%

row,SMILES,inhibition
1,Cc1cc(Cl)ccc1C(=O)C1CCCN(C(=O)CCc2c(C)nc3ncnn3c2C)C1 (stereo not drawn),inconclusive: 11%
2,CCOc1ccc(-c2nc3cc(N=Cc4cccc(OC)c4O)ccc3o2)cc1,inconclusive: 12%
3,O=C(O)CCC(=O)N[C@H]1CCN2C(=O)c3cc(/C=C/c4ccccc4)ccc3NC(=O)[C@H]12,inactive
4,Cc1ccc(C2OC(=O)c3ccccc32)cc1Cl (stereo not drawn),inactive
5,CN(C)c1cncc(-c2cc(O)cc(CCC3CCCCN3)c2)n1 (stereo not drawn),inconclusive: 16%
6,COc1cc(-c2cc(=O)c3c(O)cc(O[C@@H]4O[C@H](CO)[C@@H](O)[C@H](O)[C@H]4O[C@@H]4O[C@@H](C)[C@H](O)[C@@H](O)[C@H]4O)cc3o2)ccc1O,inactive
7,NC(N)=Nc1nc2ccccc2c(=O)[nH]1,inconclusive: 14%
8,CCCC(=O)N1c2ccccc2NC2=C(C(=O)CCC2)C1c1ccc(N(C)C)cc1 (stereo not drawn),inactive
9,CC1(C)CC(=O)C2=C(C1)Nc1nc(SCc3ccccc3)[nH]c(=O)c1C2c1cccnc1 (stereo not drawn),inconclusive: 16%
10,Cn1cnc2cc(NCc3ccc(Br)cc3)ccc21,inactive
11,Oc1ccc(O)c(C2C[C@@H]3CC[C@H]2C3)c1 (stereo partly drawn),inconclusive: 27%
12,COc1cccc(-n2cc(CN(C)Cc3cn(C)nc3-c3cccc(Cl)c3)cn2)c1,inconclusive: 15%
13,Cn1c(=O)c2c(SCC(=O)N3CCCCC3)nc(-c3ccc(F)cc3)nc2n(C)c1=O,inconclusive: 19%
14,CS(=O)(=O)NCCNCC(=O)Nc1ccc(Cl)cc1F,inactive
15,CC(C)(C)NC(=O)c1ccc2c(c1)C(=O)N(c1ccccc1-c1ccccc1)C2=O,inconclusive: 16%
16,O=C(Nc1cc(Cl)ccc1O)c1noc2c1CCCC2,inconclusive: 20%
17,Cc1ccc(Cl)c2c1C(=O)c1ccccc1C2=O,inconclusive: 16%
18,CCCOC1CCCN(C(=O)c2cc(COc3ccccc3OC)on2)C1 (stereo not drawn),inactive
19,O[C@@H]1CN(c2ncnc3ccsc23)CC[C@H]1N1CCOCC1,inconclusive: 10%
20,O=C(NC[C@H]1O[C@@H](CO)[C@@H](O)[C@H]1N1CCN(c2ccc(F)cc2)CC1)c1cccc(F)c1,inactive
21,CCOc1cccc(C=NCCNC(=O)c2nonc2N)c1O,inconclusive: 13%
22,CC(C)c1ccc(NC2CCCN(C(=O)c3ccc(N4CC(=O)NC4=O)cc3)C2)cc1 (stereo not drawn),inconclusive: 10%

row,SMILES,inhibition
1,O=C(c1ccccc1)C1CCN(C(=O)CC2COCCN2)CC1 (stereo not drawn),inconclusive: 14%
2,CC1(C)CC(=O)C2=C(C1)N(c1ccc(Br)cc1F)C(N)=C(C#N)C2c1ccsc1 (stereo not drawn),inconclusive: 11%
3,O=C(/C=C/c1ccc(O)cc1)OC[C@H]1O[C@H](O[C@]2(CO)O[C@H](CO)[C@@H](OC(=O)/C=C/c3ccc(O)cc3)[C@@H]2O)[C@H](OC(=O)/C=C/c2ccc(O)cc2)[C@@H](O)[C@@H]1O,inconclusive: 13%
4,CCc1ccc(NC(=O)c2ccc(N(Cc3ccccc3)S(C)(=O)=O)cc2)cc1,inactive
5,CN(C(=O)c1cccs1)c1ccccc1C(=O)N[C@@H]1C[C@@H](CO)N(C)C1,inactive
6,COc1cccc(/C=C2/C(=O)NN(c3ccc(Br)cc3)C2=O)c1,inconclusive: 15%
7,CCCCN(CC)S(=O)(=O)c1ccc2c(c1)CCN2C(=O)C1CC1,inactive
8,CCN1CCCC1CNC(=O)CCC1CCN(Cc2c(C)n(C)c3ccccc23)CC1 (stereo not drawn),inconclusive: 11%
9,COc1ccc(F)c(CN2CCCC3(CCN(C(=O)c4cc5ccccc5[nH]4)C3)C2)c1 (stereo not drawn),inactive
10,Cc1ccc(C)c(S(=O)(=O)N=C2C=C(Nc3ccccc3)C(=O)c3ccccc32)c1,active: 88%
11,Cn1ccnc1C(=O)C1CCCN(C(=O)CC2(c3cccc(F)c3)CC(=O)N(C3CCCC3)C2=O)C1 (stereo not drawn),inconclusive: 11%
12,COc1ccc2[nH]c(=O)c(CN3C[C@H](O)[C@@H](N4CCN(C)CC4)C3)cc2c1,inconclusive: 12%
13,CCCCN(Cc1ccco1)C(=O)c1cc(=O)n(C)c(=O)n1C,inconclusive: 14%
14,CNC(=O)C1CCC(Cn2c(=O)c3sccc3n(CC(=O)Nc3ccc(C(C)=O)cc3)c2=O)CC1 (stereo not drawn),inconclusive: 10%
15,O=C(NC1c2ccccc2-c2ccccc21)C1CCC(=O)N(Cc2ccc(Cl)cc2)C1 (stereo not drawn),inactive
16,O=C(Nc1ccc2c(c1)OCO2)c1cc2c(=O)oc3ccccc3c2s1,inconclusive: 11%
17,COc1cc(OC)c(OC)cc1CN1CCN(c2cc(C)ccc2C)CC1,active: 35%
18,Cc1nc(CN(C)C(=O)C2c3ccccc3-c3ccccc32)no1,inconclusive: 13%
19,COc1c(S(=O)(=O)N2CCN(C34CC5CC(CC(C5)C3)C4)CC2)ccc(Cl)c1Cl,inactive
20,O=C(Nc1nc(-c2cccc([N+](=O)[O-])c2)cs1)c1ccc(S(=O)(=O)N2CCOCC2)cc1,inconclusive: 21%
21,CCOc1ccc2cc(C3CC(c4ccc(C)cc4)=NN3C(C)=O)c(=O)[nH]c2c1 (stereo not drawn),inactive
22,CN(C)CCN(C)Cc1cccc(Cl)c1,inactive
